We go through two molecules from PMC8008175 (The Journal of Biological Chemistry, 2021).

No constants are given. Whether binding was seen depends on the method and setting. Sequences can lack the tags named with a protein.

The target in test [1] is T1, full-length Rpn1 (Saccharomyces cerevisiae), P38764.
T1 chain: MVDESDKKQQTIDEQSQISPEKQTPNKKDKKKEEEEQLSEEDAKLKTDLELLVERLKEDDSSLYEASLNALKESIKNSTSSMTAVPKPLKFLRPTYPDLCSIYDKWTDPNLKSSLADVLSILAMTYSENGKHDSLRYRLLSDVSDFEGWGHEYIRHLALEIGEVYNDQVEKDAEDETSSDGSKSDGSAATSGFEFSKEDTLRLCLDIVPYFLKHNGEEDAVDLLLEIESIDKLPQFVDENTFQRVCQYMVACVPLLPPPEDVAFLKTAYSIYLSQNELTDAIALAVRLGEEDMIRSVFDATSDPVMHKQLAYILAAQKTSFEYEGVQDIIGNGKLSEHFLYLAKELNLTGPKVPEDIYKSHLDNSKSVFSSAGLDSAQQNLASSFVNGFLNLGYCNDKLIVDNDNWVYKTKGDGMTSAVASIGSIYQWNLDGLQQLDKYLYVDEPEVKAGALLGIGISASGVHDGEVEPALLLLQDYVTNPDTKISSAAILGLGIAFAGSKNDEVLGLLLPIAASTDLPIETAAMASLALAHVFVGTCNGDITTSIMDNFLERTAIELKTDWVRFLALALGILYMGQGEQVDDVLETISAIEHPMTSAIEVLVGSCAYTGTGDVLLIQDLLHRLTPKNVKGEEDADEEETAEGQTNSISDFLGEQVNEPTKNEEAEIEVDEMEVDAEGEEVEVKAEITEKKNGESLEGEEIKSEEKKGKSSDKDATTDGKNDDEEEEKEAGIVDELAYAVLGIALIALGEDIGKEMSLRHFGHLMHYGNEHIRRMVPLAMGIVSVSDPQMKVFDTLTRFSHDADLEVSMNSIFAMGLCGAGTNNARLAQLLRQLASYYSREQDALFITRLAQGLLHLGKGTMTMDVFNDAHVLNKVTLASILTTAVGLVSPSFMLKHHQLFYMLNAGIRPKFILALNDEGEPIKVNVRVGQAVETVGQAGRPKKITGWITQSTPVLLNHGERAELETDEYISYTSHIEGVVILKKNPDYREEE
Put plainly: NMR titration; ^1H-^15N spectra of the ^15N-enriched protein or UBL domain with unlabeled Rpn1^FL (equimolar; excess for Ddi1); signal attenuation; 20 mM sodium phosphate, 150 mM NaCl, 1 mM TCEP, pH 6.8; 21-25 °C; both purified. Particulars: remark: other sources report otherwise.

Another test addresses T2, full-length Rpn1 (Saccharomyces cerevisiae, UniProt P38764 1-993).
T2 construct: Rpn1, proteasomal subunit, Saccharomyces cerevisiae, UniProt P38764, full length; Unlabeled in the NMR experiments; also called Rpn1^FL; source: E. coli, purified
T2 sequence (looked up): T1 chain
Described as above.

The next test addresses T3, Rpn1^356-905 (Saccharomyces cerevisiae, UniProt P38764 356-905).
T3 construct: also called PC repeat region construct; source: E. coli, purified
T3 sequence (looked up): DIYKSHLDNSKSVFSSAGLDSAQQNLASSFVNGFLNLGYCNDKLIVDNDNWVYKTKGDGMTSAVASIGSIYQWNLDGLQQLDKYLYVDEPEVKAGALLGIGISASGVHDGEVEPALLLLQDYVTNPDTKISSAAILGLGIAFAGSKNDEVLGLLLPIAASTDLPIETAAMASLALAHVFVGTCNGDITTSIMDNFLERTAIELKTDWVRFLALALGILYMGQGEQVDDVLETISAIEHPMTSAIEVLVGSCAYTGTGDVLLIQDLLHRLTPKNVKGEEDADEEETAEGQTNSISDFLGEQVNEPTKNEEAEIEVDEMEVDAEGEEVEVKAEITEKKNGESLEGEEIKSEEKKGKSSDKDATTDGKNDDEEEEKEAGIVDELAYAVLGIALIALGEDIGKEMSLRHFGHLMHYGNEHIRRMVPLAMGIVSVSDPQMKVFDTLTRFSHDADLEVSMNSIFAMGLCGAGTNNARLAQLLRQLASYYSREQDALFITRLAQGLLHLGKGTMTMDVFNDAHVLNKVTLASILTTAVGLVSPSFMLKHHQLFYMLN
Put plainly: NMR titration; ^1H-^15N spectra of ^15N-UBL with unlabeled Rpn1^356-905; 50 mM Tris-Cl, 200 mM KCl, 5% glycerol, 5 mM β-mercaptoethanol, pH 7.4; 21-25 °C; both purified.

Another test concerns the target T4, Rpn1^391-642 (Saccharomyces cerevisiae, UniProt P38764 391-642).
T4 construct: Used unlabeled, and ^15N-enriched for the titration with Ubp6-UBL; source: E. coli, purified
T4 sequence (looked up): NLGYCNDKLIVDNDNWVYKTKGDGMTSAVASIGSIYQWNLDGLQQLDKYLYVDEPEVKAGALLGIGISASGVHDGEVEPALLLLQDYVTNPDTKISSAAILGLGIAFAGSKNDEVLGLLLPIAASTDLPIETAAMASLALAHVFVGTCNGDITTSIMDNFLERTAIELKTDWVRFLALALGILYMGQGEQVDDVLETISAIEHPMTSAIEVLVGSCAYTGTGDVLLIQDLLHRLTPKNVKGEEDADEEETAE
Put plainly: NMR titration; ^1H-^15N spectra, CSPs and ^15N R2 of 150 μM ^15N-UBL or ^15N-^dK48-Ub2 with unlabeled Rpn1^391-642; 50 mM HEPES, 50 mM KCl, 1 mM TCEP, pH 7.6; 21-25 °C; both purified.

B1: full-length Ddi1, P40087 1-428 (protein)
chain: MDLTISNELTGEIYGPIEVSEDMALTDLIALLQADCGFDKTKHDLYYNMDILDSNRTQSLKELGLKTDDLLLIRGKISNSIQTDAATLSDEAFIEQFRQELLNNQMLRSQLILQIPGLNDLVNDPLLFRERLGPLILQRRYGGYNTAMNPFGIPQDEYTRLMANPDDPDNKKRIAELLDQQAIDEQLRNAIEYTPEMFTQVPMLYINIEINNYPVKAFVDTGAQTTIMSTRLAKKTGLSRMIDKRFIGEARGVGTGKIIGRIHQAQVKIETQYIPCSFTVLDTDIDVLIGLDMLKRHLACVDLKENVLRIAEVETSFLSEAEIPKSFQEGLPAPTSVTTSSDKPLTPTKTSSTLPPQPGAVPALAPRTGMGPTPTGRSTAGATTATGRTFPEQTIKQLMDLGFPRDAVVKALKQTNGNAEFAASLLFQ
With B1, the binding entry in test [1] is given as “no binding”.

B2: Ddi1-UBL (domain or fragment, UniProt P40087 1-80)
chain: MDLTISNELTGEIYGPIEVSEDMALTDLIALLQADCGFDKTKHDLYYNMDILDSNRTQSLKELGLKTDDLLLIRGKISNS
For the molecule B2, the binding entry with full-length Rpn1, with Rpn1^356-905 and with Rpn1^391-642 was “no binding” throughout.
